Paper PMC6495647

Experiments:
MucB + MucA' = assay: SPR; details: MucB 0.26 uM premixed with MucA' 1 or 10 uM, binding decreased vs MucB alone; SPR (BIAcore 2000, SA chip): 20 mM HEPES pH 8.0, 50 mM K-glutamate, 10 mM Mg acetate, 5% glycerol, 0.1 mM EDTA, 2 mM DTT, 0.05% Surfactant P20 (1% P20 in MucB sample); recombinant protein; label: 5'-biotin; single-stranded DNA
MucB = target: T1, MucB (UniProt Q79BK7); assay: SPR; details: MucB 0.26 uM, higher affinity for ssDNA than dsDNA; SPR (BIAcore 2000, SA chip): 20 mM HEPES pH 8.0, 50 mM K-glutamate, 10 mM Mg acetate, 5% glycerol, 0.1 mM EDTA, 2 mM DTT, 0.05% Surfactant P20 (1% P20 in MucB sample); recombinant protein; label: 5'-biotin on strand 1
T1 sequence (looked up, limits assumed): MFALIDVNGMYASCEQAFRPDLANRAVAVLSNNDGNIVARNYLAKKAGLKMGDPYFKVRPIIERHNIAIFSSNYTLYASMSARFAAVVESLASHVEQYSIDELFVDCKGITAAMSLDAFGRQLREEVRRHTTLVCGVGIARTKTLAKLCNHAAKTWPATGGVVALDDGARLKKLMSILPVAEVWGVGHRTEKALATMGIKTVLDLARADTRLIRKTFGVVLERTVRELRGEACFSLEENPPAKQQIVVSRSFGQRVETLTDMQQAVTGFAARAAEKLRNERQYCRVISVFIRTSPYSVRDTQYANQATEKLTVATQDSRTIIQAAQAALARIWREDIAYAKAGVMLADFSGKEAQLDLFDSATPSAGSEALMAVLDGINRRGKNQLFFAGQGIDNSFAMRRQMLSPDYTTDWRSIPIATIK

GCGGCGGTTGAGTAGCTCTTCTTCCAGCACGTTTTCGCCGATAATACCGGGATCGACCACGCCATCCATTACC [73-mer ssDNA oligonucleotide]
binding result (MucB + MucA'): binds more weakly

GCGGCGGTTGAGTAGCTCTTCTTCCAGCACGTTTTCGCCGATAATACCGGGATCGACCACGCCATCCATTACC (double strand) [73-mer dsDNA oligonucleotide]
binding result (MucB): binds more weakly

The exact form of at least one protein or probe is not confirmed. Weaker means in comparison with the reference protein, sequence or condition of that experiment. For some assays here: Tags and fusion partners may be left off the protein sequences shown.
